Measured data: PubChem BioAssay AID1259308 (NCATS, 2017)
In all, the deposit lists about 59,000 reagents; below is a part drawn at random. About 1,510 of all reagents (2.6%) were called active. 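Calls use total luciferase alone and ignore viability, so some active siRNAs may act by altering cell number.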 Reagents against one gene are numbered here. Further read-outs or replicates are left out here.

Test: 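Genes whose loss raises luciferase production in HEK293 cells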 (primary screen)
Cell system: human HEK293 embryonic kidney cells stably expressing firefly luciferase (HEK-CMV-Luc2-Hygro)
Knock-down reagent: single siRNA against human genes, 0.8 pmol siRNA per well
Timing: 72 h
Measurement: 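Reporter luminescence and viable-cell signal on separate replicate plates, given as percent of non-targeting control and median/MAD z-scores, plus per-cell luciferase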
Reading the numbers: total luciferase, z-score: higher = more reporter protein produced
Active means: 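Active when the median/MAD z-score for overall luciferase is greater than 3; a gene was taken forward for validation with new siRNAs if at least two of its three siRNAs passed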
Meaning of the calls: active = raised luciferase; inactive = no rise

gene symbol	reagent no.	total luciferase, z-score	call
ABCC12	1	0.6	inactive
ABCC12	2	1.54	inactive
ABCC12	3	0.0435	inactive
TMF1	1	-0.429	inactive
TMF1	2	0.0698	inactive
TMF1	3	1.14	inactive
TAS2R10	1	-0.321	inactive
TAS2R10	2	-1.42	inactive
TAS2R10	3	-0.16	inactive
PSD2	1	-2.34	inactive
PSD2	2	-2.62	inactive
PSD2	3	1.53	inactive
MRPL12	1	0.524	inactive
MRPL12	2	-0.225	inactive
MRPL12	3	-0.789	inactive
DSCR4	1	-2.26	inactive
DSCR4	2	-1.04	inactive
DSCR4	3	0.00235	inactive
B3GALT5-AS1	1	-0.363	inactive
B3GALT5-AS1	2	-2.73	inactive
B3GALT5-AS1	3	-0.217	inactive
CTNNA1	1	-1.82	inactive
CTNNA1	2	0.0978	inactive
CTNNA1	3	0.128	inactive
TBC1D3G	1	1.81	inactive
TBC1D3G	2	1.38	inactive
TBC1D3G	3	-0.417	inactive
LSAMP	1	-0.699	inactive
LSAMP	2	0.432	inactive
LSAMP	3	-0.18	inactive
KHDC4	1	-0.155	inactive
KHDC4	2	-1.11	inactive
KHDC4	3	-0.692	inactive
NKX2-4	1	1.2	inactive
NKX2-4	2	-0.402	inactive
NKX2-4	3	3.29	active
MCM2	1	1.06	inactive
MCM2	2	-0.675	inactive
MCM2	3	-0.77	inactive
PROK2	1	0.225	inactive
PROK2	2	-0.451	inactive
PROK2	3	1.83	inactive
OLMALINC	1	0.0548	inactive
OLMALINC	2	-3.02	inactive
OLMALINC	3	-0.696	inactive
FAM110D	1	0.681	inactive
FAM110D	2	-0.0286	inactive
FAM110D	3	2	inactive
TPRN	1	-1.19	inactive
TPRN	2	0.288	inactive
TPRN	3	-1.35	inactive
CLCN1	1	-0.987	inactive
CLCN1	2	-0.0775	inactive
CLCN1	3	0.162	inactive
CLIC1	1	0.814	inactive
CLIC1	2	0.0688	inactive
CLIC1	3	0.113	inactive
VHLL	1	-1.73	inactive
VHLL	2	-0.314	inactive
VHLL	3	0.406	inactive
S1PR2	1	-0.767	inactive
S1PR2	2	-1.21	inactive
S1PR2	3	2.01	inactive
COMMD4	1	1.24	inactive
COMMD4	2	-0.811	inactive
COMMD4	3	2.29	inactive
TCHHL1	1	0.757	inactive
TCHHL1	2	1.16	inactive
TCHHL1	3	-0.177	inactive
PRR20A	1	2.33	inactive
PRR20A	2	0.0617	inactive
PRR20A	3	-0.0511	inactive
CENPV	1	0.325	inactive
CENPV	2	-0.275	inactive
CENPV	3	0.167	inactive

Part of the list above in another layout:
TBC1D3G #1 → total luciferase, z-score: 1.81; call: inactive
TBC1D3G #2 → total luciferase, z-score: 1.38; call: inactive
TBC1D3G #3 → total luciferase, z-score: -0.417; call: inactive
LSAMP #1 → total luciferase, z-score: -0.699; call: inactive
LSAMP #2 → total luciferase, z-score: 0.432; call: inactive
LSAMP #3 → total luciferase, z-score: -0.18; call: inactive
